For 1 substance, binding results are on record in publication PMC6814823.

Protein sequences, listed by entry. Tags and fused reporters are not part of them.
UniProt Q13569: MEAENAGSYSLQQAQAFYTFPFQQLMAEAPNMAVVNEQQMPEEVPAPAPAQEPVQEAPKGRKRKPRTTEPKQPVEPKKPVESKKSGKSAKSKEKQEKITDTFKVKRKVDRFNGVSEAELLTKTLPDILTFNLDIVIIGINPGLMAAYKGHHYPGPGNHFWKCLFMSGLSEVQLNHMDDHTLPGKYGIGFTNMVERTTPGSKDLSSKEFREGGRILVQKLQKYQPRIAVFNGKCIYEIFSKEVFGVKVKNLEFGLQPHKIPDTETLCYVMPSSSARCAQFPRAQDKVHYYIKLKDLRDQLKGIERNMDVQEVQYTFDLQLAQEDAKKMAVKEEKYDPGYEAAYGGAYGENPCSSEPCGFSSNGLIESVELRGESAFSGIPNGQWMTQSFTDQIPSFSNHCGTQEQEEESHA

No constants are given. Whether binding was seen depends on the method and setting. In cells and extracts the contact can be indirect. Some entries that bind do so weakly or less than the wild type.

The experiment addresses Ten-eleven translocation 2 (TET2) (human (in HaCaT cells; endogenous or transfected not stated)) (UniProt Q6N021). As to the kind of experiment: co-IP; coimmunoprecipitation in HaCaT cells, with and without ectopic expression of the lncRNA TETILA; bait not stated.

“thymine-DNA glycosylase (TDG) (from UniProt Q13569 1-410) (enzyme)”: the binding result is “binds”.
